Measurements taken from PubChem BioAssay (NCATS).
The shares of active, inactive and inconclusive entries below differ from those in the screen. For some assays here: Potencies of inconclusive entries are doubtful fits and often do not repeat. Calls of active or inactive are those of the source. Calls follow the shape of the dose curve; as a rule, active = well fitted cell-killing curve with a large enough effect; inconclusive = small, poorly fitted or top-dose-only effect, or effect the other way; inactive = no such curve, though single readings can be large or run the other way.

Tests used:
[1] = Quantitative High-Throughput drug screen in 47 multiple myeloma cell lines against the NCATS MIPE library collection: MOLP8_DSMZ cell viability assay (AID 1918977); also: nearly all actives have a fitted effect of over 45% in size; also: potency is read from the fitted curve at half-maximal effect;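 as to viability (% of control): 100% = DMSO-only wells and 0% = media-only wells without cells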
In short: (§1)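 Readout: median RLU from CellTiter-Glo after 5 min at room temperature. Preceding step was 48 h drug treatment of 500 cells/well at 37 °C, 5% CO2, with DMSO-only and media-only control wells.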

[2] = Quantitative High-Throughput drug screen in 47 multiple myeloma cell lines against the NCATS MIPE library collection: MM1R_ATCC cell viability assay (AID 1918981); also: potency is read from the fitted curve at half-maximal effect; nearly all actives have a fitted effect of over 35% in size
In short: as §1

[3] = Quantitative High-Throughput drug screen in 47 multiple myeloma cell lines against the NCATS MIPE library collection: LP1_DSMZ cell viability assay (AID 1918982); also: potency is read from the fitted curve at half-maximal effect; nearly all actives have a fitted effect of over 35% in size
In short: as §1

[4] = Quantitative High-Throughput drug screen in 47 multiple myeloma cell lines against the NCATS MIPE library collection: L363_DSMZ cell viability assay (AID 1918984); conditions: L363 myeloma viability, CellTiter-Glo ATP luminescence, 48 h; viability (% of control): at 45.8 µM (top of the series); also: nearly all actives have a fitted effect of over 40% in size; also: potency is read from the fitted curve at half-maximal effect
In short: as §1

[5] = Quantitative High-Throughput drug screen in 47 multiple myeloma cell lines against the NCATS MIPE library collection: U266_ATCC cell viability assay (AID 1919864); also: nearly all actives have a fitted effect of over 35% in size; also: potency is read from the fitted curve at half-maximal effect;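 as to viability (% of DMSO control): 0% = media-only wells without cells and 100% = DMSO-only wells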
In short: as §1

[6] = Quantitative High-Throughput drug screen in 47 multiple myeloma cell lines against the NCATS MIPE library collection: VP6_DJ cell viability assay (AID 1919867); conditions: ATP luminescence, 48 h; viability (% of DMSO): at 45.8 µM; also: potency is read from the fitted curve at half-maximal effect; nearly all actives have a fitted effect of over 40% in size
In short: as §1

[7] = Quantitative High-Throughput drug screen in 47 multiple myeloma cell lines against the NCATS MIPE library collection: OCIMY1_PLB cell viability assay (AID 1918979); also: potency is read from the fitted curve at half-maximal effect; nearly all actives have a fitted effect of over 35% in size
In short: as §1

[8] = Quantitative High-Throughput drug screen in 47 multiple myeloma cell lines against the NCATS MIPE library collection: OCIMY5_PLB cell viability assay (AID 1918988); conditions: OCI-MY5 myeloma viability, ATP luminescence, 48 h; viability, % of control: at 45.8 µM; also: potency is read from the fitted curve at half-maximal effect; nearly all actives have a fitted effect of over 65% in size
In short: as §1

[9] = Quantitative High-Throughput drug screen in 47 multiple myeloma cell lines against the NCATS MIPE library collection: PCM6_Riken cell viability assay (AID 1919870); conditions: CellTiter-Glo ATP, 48 h; viability (% of control): at 45.8 µM; also: potency is read from the fitted curve at half-maximal effect; nearly all actives have a fitted effect of over 30% in size
In short: as §1

[10] = Quantitative High-Throughput drug screen in 47 multiple myeloma cell lines against the NCATS MIPE library collection: MM1S_ATCC cell viability assay (AID 1918980); also: potency is read from the fitted curve at half-maximal effect; nearly all actives have a fitted effect of over 45% in size
In short: as §1

[11] = Quantitative High-Throughput drug screen in 47 multiple myeloma cell lines against the NCATS MIPE library collection: KMS34_JCRB cell viability assay (AID 1918985); conditions: KMS34 myeloma viability, CellTiter-Glo ATP luminescence, 48 h; viability, percent of control: at 45.8 µM; also: nearly all actives have a fitted effect of over 40% in size; also: potency is read from the fitted curve at half-maximal effect;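 as to viability, percent of control: 100% = DMSO-only wells and 0% = media-only wells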
In short: as §1

[12] = Quantitative High-Throughput drug screen in 47 multiple myeloma cell lines against the NCATS MIPE library collection: OCIMY7_PLB cell viability assay (AID 1918987); conditions: OCI-MY7 myeloma viability, CellTiter-Glo ATP, 48 h; viability (% of DMSO): at 45.8 µM unless noted; also: nearly all actives have a fitted effect of over 65% in size; also: potency is read from the fitted curve at half-maximal effect
In short: as §1

[13] = Quantitative High-Throughput drug screen in 47 multiple myeloma cell lines against the NCATS MIPE library collection: XG6_PLB cell viability assay (AID 1919865); conditions: XG6 myeloma viability, CellTiter-Glo ATP luminescence, 48 h; viability (% of control): at 45.8 µM; also: nearly all actives have a fitted effect of over 40% in size; also: potency is read from the fitted curve at half-maximal effect;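 as to viability (% of control): 100% = DMSO-only wells and 0% = media-only wells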
In short: as §1

[14] = Quantitative High-Throughput drug screen in 47 multiple myeloma cell lines against the NCATS MIPE library collection: UTMC2_PLB cell viability assay (AID 1919868); conditions: CellTiter-Glo ATP luminescence, 48 h; viability (% of DMSO control): at 45.8 µM; also: nearly all actives have a fitted effect of over 55% in size; also: potency is read from the fitted curve at half-maximal effect;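 as to viability (% of DMSO control): 100% = DMSO-only wells and 0% = media-only wells without cells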
In short: as §1

[15] = Quantitative High-Throughput drug screen in 47 multiple myeloma cell lines against the NCATS MIPE library collection: SKMM1_PLB cell viability assay (AID 1919863); conditions: SKMM1 myeloma viability, CellTiter-Glo ATP, 48 h; viability: stronger effect = lower value; also: nearly all actives have a fitted effect of over 35% in size; also: potency is read from the fitted curve at half-maximal effect
In short: as §1

[16] = Quantitative High-Throughput drug screen in 47 multiple myeloma cell lines against the NCATS MIPE library collection: XG1_PLB cell viability assay (AID 1919866)
In short: as §1

[17] = Quantitative High-Throughput drug screen in 47 multiple myeloma cell lines against the NCATS MIPE library collection: PE2_PLB cell viability assay (AID 1919869); conditions: PE2_PLB myeloma cells viability, ATP luminescence, 48 h; viability (% of control): at 45.8 µM
In short: as §1

[18] = Quantitative High-Throughput drug screen in 47 multiple myeloma cell lines against the NCATS MIPE library collection: OPM1_PLB cell viability assay (AID 1918989); conditions: CellTiter-Glo, 48 h; viability (% of control): at 45.8 µM
In short: as §1

[19] = Quantitative High-Throughput drug screen in 47 multiple myeloma cell lines against the NCATS MIPE library collection: KMS28PE_JCRB cell viability assay (AID 1918983); also: nearly all actives have a fitted effect of over 35% in size
In short: as §1

Nc1ccc(C(=O)Nc2cccc(-c3nc(N4CCOCC4)c4oc5ncccc5c4n3)c2)cn1
Potency [1]: active: 20.9 µM | Potency [2]: active: 13.2 µM | Potency [3]: inconclusive: 13.2 µM [cytotoxic, partial curve, poor fit] | Potency [4]: active: 1.18 µM | Potency [5]: active: 20.9 µM | Potency [6]: active: 4.18 µM

CC[C@@]1(O)C(=O)OCc2c1cc1n(c2=O)Cc2cc3c(CN(C)C)c(O)ccc3nc2-1
Potency [1]: active: 1.32 µM | Potency [7]: active: 13.2 µM | Potency [4]: inconclusive: 1.32 µM [cytotoxic, partial curve, poor fit] | Potency [8]: active: 5.9 µM | Potency [9]: active: 1.66 µM

CN1CCCC(n2nc(Cc3ccc(Cl)cc3)c3ccccc3c2=O)CC1 (centres undefined)
Potency [1]: inconclusive: 26.4 µM [cytotoxic, single point] | Potency [10]: active: 0.662 µM | Potency [3]: inconclusive: 18.7 µM [cytotoxic, partial curve] | Potency [11]: active: 10.5 µM | Potency [12]: active: 1.18 µM | Potency [8]: active: 1.18 µM | Potency [13]: active: 1.05 µM | Potency [14]: active: 1.87 µM | Potency [9]: active: 3.32 µM

NS(=O)(=O)OC[C@@H]1C[C@@H](n2ccc3c(N[C@H]4CCc5ccccc54)ncnc32)C[C@H]1O
Potency [1]: inconclusive: 0.332 µM [cytotoxic, full curve] | Potency [7]: inconclusive: 1.32 µM [cytotoxic, full curve] | Potency [4]: inconclusive: 0.662 µM [cytotoxic, full curve] | Potency [11]: inconclusive: 4.69 µM [cytotoxic, partial curve, poor fit] | Potency [15]: active: 1.05 µM | Potency [13]: inconclusive: 5.26 µM [cytotoxic, partial curve] | Potency [16]: active: 0.332 µM | Potency [6]: active: 1.48 µM | Potency [14]: inconclusive: 0.833 µM [cytotoxic, full curve, poor fit] | Potency [17]: inconclusive: 0.526 µM [cytotoxic, full curve]

CCC(C=C[C@@H]1OC(=O)C=C[C@H]1C)=C[C@H](C)CC=CC(C)=C[C@@H](C)C(=O)[C@@H](C)[C@H](O)[C@@H](C)CC(C)=CC(=O)O
Potency [1]: active: 0.0196 µM | Potency [10]: active: 0.0156 µM | Potency [2]: active: 0.0098 µM | Potency [3]: active: 0.0277 µM | Potency [4]: active: 0.0078 µM | Potency [11]: active: 0.022 µM | Potency [14]: active: 0.0175 µM

Oc1c(Cl)cc(Cl)c2cccnc12
Potency [1]: active: 11.8 µM | Potency [7]: active: 18.7 µM | Potency [11]: active: 16.6 µM

CC(=CC(=O)Nc1ccccc1C(=O)O)c1ccc2ccccc2c1
Potency [1]: inconclusive: 6.62 µM [cytotoxic, partial curve, poor fit] | Potency [2]: inconclusive: 33.2 µM [cytotoxic, single point] | Potency [3]: inconclusive: 8.33 µM [cytotoxic, partial curve, poor fit] | Potency [4]: inconclusive: 14.8 µM [cytotoxic, partial curve, poor fit] | Potency [11]: inconclusive: 11.8 µM [cytotoxic, single point] | Potency [12]: inconclusive: 1.05 µM [cytotoxic, full curve, poor fit] | Potency [8]: inconclusive: 20.9 µM [cytotoxic, single point] | Potency [18]: inconclusive: 37.2 µM [cytotoxic, single point] | Potency [15]: inconclusive: 29.6 µM [cytotoxic, single point] | Potency [5]: inconclusive: 20.9 µM [cytotoxic, partial curve, poor fit] | Potency [16]: inconclusive: 5.9 µM [cytotoxic, partial curve] | Potency [14]: inconclusive: 37.2 µM [cytotoxic, single point] | Potency [9]: inconclusive: 18.7 µM [cytotoxic, partial curve]

COc1ccc(S(=O)(=O)Nc2cccnc2Nc2ccc(O)cc2)cc1
Potency [1]: active: 1.18 µM | Potency [7]: inconclusive: 0.0833 µM [cytotoxic, full curve] | Potency [4]: inactive | Potency [12]: active: 0.0372 µM | Potency [13]: inconclusive: 0.0332 µM [cytotoxic, full curve] | Potency [14]: inconclusive: 0.264 µM [cytotoxic, full curve, poor fit] | Potency [9]: active: 0.235 µM

O=C(NCC1CN(c2ccc(N3CCOCC3=O)cc2)C(=O)O1)c1ccc(Cl)s1 (centres undefined)
Potency [1]: inactive | Potency [10]: inconclusive: 0.0026 µM [rising, full curve] | Potency [3]: inconclusive: 20.9 µM [cytotoxic, partial curve] | Potency [19]: inactive | Potency [4]: inconclusive: 26.4 µM [cytotoxic, single point] | Potency [11]: inactive | Potency [12]: inactive | Potency [8]: inconclusive: 0.0148 µM [rising, full curve] | viability [15]: inactive: 135% | Potency [5]: inactive | Potency [13]: inactive | Potency [6]: inconclusive: 20.9 µM [cytotoxic, single point] | Potency [14]: inactive | Potency [9]: inconclusive: 0.0021 µM [rising, full curve, poor fit]
